Reference: publication PMC13070255
These are yes or no findings as the source states them, for the method shown. Some entries that bind do so weakly or less than the wild type. One block for each binder: values may come before it.

Target: T1, MERTK on THP1-derived macrophages (human (endogenous in THP1)) (UniProt Q12866)
T1 sequence: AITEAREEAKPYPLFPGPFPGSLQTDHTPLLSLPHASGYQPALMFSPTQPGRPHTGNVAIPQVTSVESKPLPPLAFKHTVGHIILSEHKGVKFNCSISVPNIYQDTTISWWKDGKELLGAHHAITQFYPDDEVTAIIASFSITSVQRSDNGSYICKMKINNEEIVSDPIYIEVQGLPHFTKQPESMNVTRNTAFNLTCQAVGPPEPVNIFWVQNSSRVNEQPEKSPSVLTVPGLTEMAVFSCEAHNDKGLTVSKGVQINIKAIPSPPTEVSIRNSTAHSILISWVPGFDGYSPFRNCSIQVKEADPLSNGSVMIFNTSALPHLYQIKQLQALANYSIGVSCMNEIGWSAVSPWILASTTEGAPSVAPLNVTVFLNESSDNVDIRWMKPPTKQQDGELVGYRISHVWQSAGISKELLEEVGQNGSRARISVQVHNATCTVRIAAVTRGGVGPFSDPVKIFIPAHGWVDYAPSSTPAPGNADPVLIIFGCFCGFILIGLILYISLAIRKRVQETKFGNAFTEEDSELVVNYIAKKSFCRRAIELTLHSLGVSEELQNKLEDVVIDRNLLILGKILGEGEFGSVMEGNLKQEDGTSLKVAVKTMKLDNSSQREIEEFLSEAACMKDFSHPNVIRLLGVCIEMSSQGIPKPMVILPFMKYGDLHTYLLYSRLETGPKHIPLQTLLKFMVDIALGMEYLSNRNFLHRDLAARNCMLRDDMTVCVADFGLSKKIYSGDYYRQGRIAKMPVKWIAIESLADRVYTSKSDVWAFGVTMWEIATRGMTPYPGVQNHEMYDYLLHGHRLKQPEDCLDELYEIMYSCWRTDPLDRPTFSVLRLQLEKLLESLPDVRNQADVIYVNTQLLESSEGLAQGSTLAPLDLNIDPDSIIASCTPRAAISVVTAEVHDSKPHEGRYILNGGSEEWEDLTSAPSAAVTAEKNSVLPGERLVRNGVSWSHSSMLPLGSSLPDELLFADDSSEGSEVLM
Experiment: binding of opsonised apoptotic cell mimics (beads) to cells, microscopy; beads opsonised with Gas6 and/or sCD93, or with ProS and MFG-E8, centrifuged onto PMA-differentiated THP1 macrophages, 60 min at 37°C; bound beads per macrophage counted; MERTK, αx or β2 depleted by siRNA as controls; only the binder purified

binding: binds
B1: Gas6 (recombinant) (ligand, UniProt Q14393 31-678)
chain: ALLPAREATQFLRPRQRRAFQVFEEAKQGHLERECVEELCSREEAREVFENDPETDYFYPRYLDCINKYGSPYTKNSGFATCVQNLPDQCTPNPCDRKGTQACQDLMGNFFCLCKAGWGGRLCDKDVNECSQENGGCLQICHNKPGSFHCSCHSGFELSSDGRTCQDIDECADSEACGEARCKNLPGSYSCLCDEGFAYSSQEKACRDVDECLQGRCEQVCVNSPGSYTCHCDGRGGLKLSQDMDTCEDILPCVPFSVAKSVKSLYLGRMFSGTPVIRLRFKRLQPTRLVAEFDFRTFDPEGILLFAGGHQDSTWIVLALRAGRLELQLRYNGVGRVTSSGPVINHGMWQTISVEELARNLVIKVNRDAVMKIAVAGDLFQPERGLYHLNLTVGGIPFHEKDLVQPINPRLDGCMRSWNWLNGEDTTIQETVKVNTRMQCFSVTERGSFYPGSGFAFYSLDYMRTPLDVGTESTWEVEVVAHIRPAADTGVLFALWAPDLRAVPLSVALVDYHSTKKLKKQLVVLAVEHTALALMEIKVCDGQEHVVTVSLRDGEATLEVDGTRGQSEVSAAQLQERLAVLERHLRSPVLTFAGGLPDVPVTSAPVTAFYRGCMTLEVNRRLLDLDEAAYKHSDITAHSCPPVEPAAA

binding: binds
B2: Protein S (ligand, UniProt P07225 42-676)
chain: ANSLLEETKQGNLERECIEELCNKEEAREVFENDPETDYFYPKYLVCLRSFQTGLFTAARQSTNAYPDLRSCVNAIPDQCSPLPCNEDGYMSCKDGKASFTCTCKPGWQGEKCEFDINECKDPSNINGGCSQICDNTPGSYHCSCKNGFVMLSNKKDCKDVDECSLKPSICGTAVCKNIPGDFECECPEGYRYNLKSKSCEDIDECSENMCAQLCVNYPGGYTCYCDGKKGFKLAQDQKSCEVVSVCLPLNLDTKYELLYLAEQFAGVVLYLKFRLPEISRFSAEFDFRTYDSEGVILYAESIDHSAWLLIALRGGKIEVQLKNEHTSKITTGGDVINNGLWNMVSVEELEHSISIKIAKEAVMDINKPGPLFKPENGLLETKVYFAGFPRKVESELIKPINPRLDGCIRSWNLMKQGASGIKEIIQEKQNKHCLVTVEKGSYYPGSGIAQFHIDYNNVSSAEGWHVNVTLNIRPSTGTGVMLALVSGNNTVPFAVSLVDSTSEKSQDILLSVENTVIYRIQALSLCSDQQSHLEFRVNRNNLELSTPLKIETISHEDLQRQLAVLDKAMKAKVATYLGGLPDVPFSATPVNAFYNGCMEVNINGVQLDLDEAISKHNDIRAHSCPSVWKKTKNS
